In patent publication US20250340660A1 one finds binding data, which are given here for 6 molecules.

Protein sequences, listed by entry. Tags and fused reporters are not part of them. Residues count along the entry.
UniProt P32971, residues 63-234: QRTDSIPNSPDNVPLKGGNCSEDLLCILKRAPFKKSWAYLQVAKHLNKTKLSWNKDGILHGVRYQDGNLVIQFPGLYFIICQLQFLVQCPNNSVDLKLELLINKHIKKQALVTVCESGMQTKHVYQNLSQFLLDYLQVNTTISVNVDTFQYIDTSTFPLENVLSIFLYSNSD

The target of test [1] is recombinant human CD30L (human) (UniProt P32971). As to the kind of experiment: Carterra SPR binning; mAb coupled to the HC30M chip captures rhCD30L.
Test [2] has as its target recombinant cynomolgus CD30L protein (cynomolgus). The experiment in a line: KinExA, Fab in solution. For orientation: In KinExA the mixture passes briefly over coated beads that capture the unbound partner.
Test [3] shares this target. The experiment in a line: ELISA with purified CD30L. In general terms: ELISA stands for enzyme-linked immunosorbent assay.
Test [4] deals with cynomolgus CD30L expressed on HEK293 cells (cynomolgus). The experiment in a line: flow cytometry on CD30L-expressing B16 or HEK293 cells. On the technique in general: A flow cytometer gives signals particle by particle.

Results are given in words; binding and its absence hold for the method and conditions named. Some entries that bind do so weakly or less than the wild type.

B1: anti-CD30L antibody clone 2 (antibody, V domains shown)
VH: EVQLVESGGGLVQPGRSLRLSCAASGFNFDDYAMHWVRQAPGKGLEWVSGISWRSGNIGYAGSVKGRFTISRDNAKNSLYLQMNSLRPEDSALYYCAKDKGIGFNWNYEGFDYWGQGTLVTVSS
VL: DIQMTQSPSSLSASVGDRVTITCRASQGISNHLAWFQQKPGKAPKSLIYAASSLQSGVPSKFSGSGSGTDFTLTISSLQPEDFATYYCQQYVTYPLTFGGGTKVEIK
Take B1: the binding result in test [1] was “binds”.

B2: Fab of anti-CD30L clone 2 germlined (Fab, V domains shown)
VH: EVQLVESGGGLVQPGRSLRLSCAASGFNFDDYAMHWVRQAPGKGLEWVSGISWRSGNIGYADSVKGRFTISRDNAKNSLYLQMNSLRAEDTALYYCAKDKGIGFNWNYEGFDYWGQGTLVTVSS
VL: DIQMTQSPSSLSASVGDRVTITCRASQGISNHLAWFQQKPGKAPKSLIYAASSLQSGVPSRFSGSGSGTDFTLTISSLQPEDFATYYCQQYVTYPLTFGGGTKVEIK
As to B2, the binding result in test [2] is “binds”.

B3: anti-CD30L antibody Clone 2 (parental) (antibody, V domains shown)
VH: EVQLVESGGGLVQPGRSLRLSCAASGFNFDDYAMHWVRQAPGKGLEWVSGISWRSGNIGYAGSVKGRFTISRDNAKNSLYLQMNSLRPEDSALYYCAKDKGIGFNWNYEGFDYWGQGTLVTVSS
VL: DIQMTQSPSSLSASVGDRVTITCRASQGISNHLAWFQQKPGKAPKSLIYAASSLQSGVPSKFSGSGSGTDFTLTISSLQPEDFATYYCQQYVTYPLTFGGGTKVEIK
Regarding B3, the binding result in test [3] and in test [4] was “binds” in each case.

B4: anti-CD30L antibody clone 2 germlined (antibody, V domains shown)
VH: EVQLVESGGGLVQPGRSLRLSCAASGFNFDDYAMHWVRQAPGKGLEWVSGISWRSGNIGYADSVKGRFTISRDNAKNSLYLQMNSLRAEDTALYYCAKDKGIGFNWNYEGFDYWGQGTLVTVSS
VL: DIQMTQSPSSLSASVGDRVTITCRASQGISNHLAWFQQKPGKAPKSLIYAASSLQSGVPSRFSGSGSGTDFTLTISSLQPEDFATYYCQQYVTYPLTFGGGTKVEIK
Consider B4, for which the binding entry in test [3] and in test [4] was “binds” in each case.

B5: anti-CD30L antibody clone 1 (antibody, V domains shown)
VH: QVQLQESGPGLVKPSETLSLTCTVSGGSISGYYWSWIRQPPVKGLEWIGYIFYSGYTKYNPSLKSRVTISVDTSKNQFSLKLSSVTAADTAVYYCARDRWDFDYWGQGALVTVSS
VL: AIQMTQSPSYLSASVGDRVTIACRASQGIRNNLGWYQQKPGKAPKLLIYAESSLQSGVPSRFSGSGSGTDFTLTISSLQPEDFATYYCLQDFNYPYTFGQGTKLEIK
Consider B5, for which, in test [1], the binding result is on record as “binds”.

B6: anti-CD30L antibody Clone 1 (parental) (antibody, V domains shown)
VH: QVQLQESGPGLVKPSETLSLTCTVSGGSISGYYWSWIRQPPVKGLEWIGYIFYSGYTKYNPSLKSRVTISVDTSKNQFSLKLSSVTAADTAVYYCARDRWDFDYWGQGALVTVSS
VL: AIQMTQSPSYLSASVGDRVTIACRASQGIRNNLGWYQQKPGKAPKLLIYAESSLQSGVPSRFSGSGSGTDFTLTISSLQPEDFATYYCLQDFNYPYTFGQGTKLEIK
As to B6, the binding entry in test [3] and in test [4] was “binds” throughout.
